Measured values reported in article PMC5385504.
Results are given in words; binding and its absence hold for the method and conditions named. In cells and extracts the contact can be indirect. Where a sequence is shown, tags or fusion partners need not be part of it.

Protein sequences, listed by entry. Tags and fused reporters are not part of them.
UniProt O92432: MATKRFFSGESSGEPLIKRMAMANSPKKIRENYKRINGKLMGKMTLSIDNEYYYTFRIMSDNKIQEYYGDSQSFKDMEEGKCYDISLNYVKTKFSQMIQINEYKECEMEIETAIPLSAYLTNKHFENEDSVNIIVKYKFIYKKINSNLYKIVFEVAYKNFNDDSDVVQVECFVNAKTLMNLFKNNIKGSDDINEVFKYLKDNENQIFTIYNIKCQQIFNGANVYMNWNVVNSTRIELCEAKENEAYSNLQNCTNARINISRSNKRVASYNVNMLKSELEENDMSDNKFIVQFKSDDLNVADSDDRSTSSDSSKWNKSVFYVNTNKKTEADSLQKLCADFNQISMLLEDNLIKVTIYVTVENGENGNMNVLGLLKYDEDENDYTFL
UniProt O92415: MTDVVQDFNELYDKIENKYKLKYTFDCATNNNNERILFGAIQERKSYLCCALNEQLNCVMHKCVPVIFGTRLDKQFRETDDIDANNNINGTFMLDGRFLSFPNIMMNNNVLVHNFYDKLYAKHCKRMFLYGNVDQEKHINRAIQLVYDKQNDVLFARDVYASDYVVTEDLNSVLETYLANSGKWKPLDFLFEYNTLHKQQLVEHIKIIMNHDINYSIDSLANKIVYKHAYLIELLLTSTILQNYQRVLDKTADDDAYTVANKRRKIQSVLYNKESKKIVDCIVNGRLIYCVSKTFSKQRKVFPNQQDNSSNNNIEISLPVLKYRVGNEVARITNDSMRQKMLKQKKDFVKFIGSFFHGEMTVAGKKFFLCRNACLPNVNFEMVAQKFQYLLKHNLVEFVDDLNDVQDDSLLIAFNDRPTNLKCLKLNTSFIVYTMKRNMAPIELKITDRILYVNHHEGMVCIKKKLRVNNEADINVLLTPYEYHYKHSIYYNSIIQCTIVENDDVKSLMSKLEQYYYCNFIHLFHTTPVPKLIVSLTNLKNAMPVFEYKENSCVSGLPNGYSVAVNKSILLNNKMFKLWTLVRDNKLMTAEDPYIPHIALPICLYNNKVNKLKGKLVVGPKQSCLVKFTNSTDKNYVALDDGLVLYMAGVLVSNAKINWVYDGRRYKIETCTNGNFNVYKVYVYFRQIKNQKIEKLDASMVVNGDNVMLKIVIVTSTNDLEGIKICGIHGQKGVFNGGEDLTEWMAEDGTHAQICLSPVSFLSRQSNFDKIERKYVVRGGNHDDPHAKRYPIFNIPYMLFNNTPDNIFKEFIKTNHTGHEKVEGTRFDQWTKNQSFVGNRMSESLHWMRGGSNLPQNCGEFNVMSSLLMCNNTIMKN

Target: T1, LEF-11^HA (BmNPV LEF-11 with HA tag, from pIZ-LEF-11^HA) (Bombyx mori nucleopolyhedrovirus (BmNPV)) (UniProt O92404)
T1 sequence: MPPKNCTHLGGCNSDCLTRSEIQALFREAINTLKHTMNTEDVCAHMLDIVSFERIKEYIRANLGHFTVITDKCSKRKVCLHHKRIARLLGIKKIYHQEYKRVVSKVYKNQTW
Assay: co-IP

Substance	binding
LEF-3^FLAG (BmNPV LEF-3 with FLAG tag, from pIZ-LEF-3^FLAG) (from UniProt O92432 1-385)	no binding
LEF-8^FLAG (BmNPV LEF-8 with FLAG tag, from pIZ-LEF-8^FLAG) (from UniProt O92415 1-877)	no binding
